The structures appear in SMILES notation.

Consider one molecule from paper PMC1716192, “A Plant-Derived Morphinan as a Novel Lead Compound Active against Malaria Liver Stages” (PLoS Medicine, 2006).

The assay deals with P. yoelii (265 BY strain) hepatic stages. The experiment in a line: In vitro assay for P. yoelii liver stage inhibition in primary mouse hepatocytes. It is filed as cell-based. The note with it: Plasmodium yoelii, Hepatocyte, 48 h. The method, then:
P. yoelii (265 BY strain) and P. falciparum (NF 54 strain) sporozoites were obtained by dissection of infected Anopheles stephensi salivary glands. Primary mouse hepatocytes were isolated as previously described and seeded in eight-well Lab-Tek plastic chamber slides (VWR, Fontenay-sous-Bois, France) previously coated with rat-tail collagen I (BD Biosciences, Le Pont de Claix, France) at a density of 10^5 cells per well. […] Parasites were quantified on the last day of incubation. For the in vitro timing experiments, tazopsine treatment of P. yoelii and P. falciparum cultures was undertaken for different periods during the cultivation: 0 h to 3 h, 3 h to 24 h, or 24 h to 48 h after P. yoelii sporozoite inoculation (quantification at 48 h), or 0 h to 2 d, or 3 d to 5 d after P. falciparum sporozoite inoculation (quantification at 5 d). […] Parasite numbers were counted under a fluorescence microscope with a 25× light microscope objective.
IC50 and TC50 were calculated by nonlinear regression using four-parameter logistic curves on the SigmaPlot 10.0 software (http://www.systat.com). Each IC50 or TC50 is expressed as a mean between two independent experiments, followed by the standard error of the mean.

As to `CN1CC[C@]23c4c5ccc(O)c4O[C@H]2[C@@H](O)C=C[C@H]3[C@H]1C5` [morphine, reference compound], the IC50 was above 100 µM.
